According to publication PMC4945028:
For at least one entry, the source does not settle the construct or the ends of the probe. A negative result means that nothing was seen under these conditions.

By UniProt entry, the sequences of proteins in these tests, tags left out. Where a name states a change or a piece, a line headed by the entry shows the natural chain unless it says otherwise.
UniProt Q9V9N4: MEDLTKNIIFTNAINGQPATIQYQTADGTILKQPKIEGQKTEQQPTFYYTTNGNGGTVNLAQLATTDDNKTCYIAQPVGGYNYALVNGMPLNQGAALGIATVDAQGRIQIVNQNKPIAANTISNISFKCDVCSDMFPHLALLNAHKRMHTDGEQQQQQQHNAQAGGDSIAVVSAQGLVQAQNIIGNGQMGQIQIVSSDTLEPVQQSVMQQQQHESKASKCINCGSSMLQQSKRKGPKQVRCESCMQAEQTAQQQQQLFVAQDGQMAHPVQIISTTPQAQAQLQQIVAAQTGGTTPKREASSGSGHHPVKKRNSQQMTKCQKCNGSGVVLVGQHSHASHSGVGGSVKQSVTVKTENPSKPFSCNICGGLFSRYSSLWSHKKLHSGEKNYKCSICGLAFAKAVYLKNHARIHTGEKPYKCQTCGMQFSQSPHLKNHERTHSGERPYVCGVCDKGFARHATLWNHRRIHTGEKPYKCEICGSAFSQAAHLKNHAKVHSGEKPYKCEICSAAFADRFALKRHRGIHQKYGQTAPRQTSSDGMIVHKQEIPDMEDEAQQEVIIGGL

How the values were obtained:
[1] = target: MBP-CLAMP 6ZF (Drosophila melanogaster) (UniProt Q9V9N4); experiment: EMSA; conditions: poly(dI-dC), EMSA: LightShift chemiluminescent kit, 1 ug/uL poly(dI-dC), 5 mM Tris-HCl pH 8.5 elution buffer, salt and temperature not stated, recombinant protein, protein details: N-terminal MBP (pMAL-c5X), label: 3' biotin on each strand
[2] = target: MBP-CLAMP 6ZF (Drosophila melanogaster) (UniProt Q9V9N4); experiment: competition with a labelled probe; conditions: labeled High affinity probe, EMSA: LightShift chemiluminescent kit, 1 ug/uL poly(dI-dC), 5 mM Tris-HCl pH 8.5 elution buffer, salt and temperature not stated, recombinant protein, protein details: N-terminal MBP (pMAL-c5X)

“TTATGTAATTATAATGAGAGAGAGAGAGAGAGAGAGAGAGAGAGATATTGTTTATTTATT (double strand) [Fifteen-repeat]”: binds ([1]; single shifted species).

“TGTTTATTTATGTAATTATAATGAGAGAGAGAGAGAGATATTGTTTATTTATTAATGTAT (double strand) [Eight-repeat]”: binds [1].

“GTATTGTTTATTTATGTAATTATAATGAGAGAGATATTGTTTATTTATTAATGTATAATT (double strand) [Four-repeat]”: no binding ([1]; no increase in shifted signal).

“CTACTATAGCAATGGGAGCGAGAAGTATCAGTCAGT (double strand)”: no binding ([2]; does not compete, text says High affinity competes better).

“TTTATTTATGTAATTATAATGAGAGAGAGAGAGAGAGAGATATTGTTTATTTATTAATGT (double strand) [Ten-repeat]”: binds [1].

“CGGGCCAGCTGCTGTCTCGCTCGCACCCGCACCGCT (double strand) [High affinity competitor]”: binds [2].

“CGGGCCAGCTGCTGTCTCGCTCGCACCCGCACCGCT (double strand) [High affinity]”: binds [1].
